US8546322B2, “Inhibitors of intracellular urokinase plasminogen activator and methods of use thereof” (The Regents of the University of California, priority 2007, dated 2013)
Read-outs that look alike come from different tables or passages of the source. *1 amine or outer side, *2 acyl side, *3 side chain or, on linkers, in order; H or OH if unused. Where a SMILES comes first, the peptide text is derived from it. [ ]: non-standard residue; d: D form. X1 = N=C(N)NC(=O)c1nc(Cl)c(N(CC(=O)[*:2])[*:1])nc1N

Experiments:
[1] = system: enkephalinase (neutral endopeptidase 24.11); test: LCMS enkephalinase degradation assay; type: biochemical; conditions: LCMS after incubation with enzyme
[2] = system: enkephalinase (neutral endopeptidase 24.11); conditions: Palandoken et al. 2005, cited from earlier work

Compound	cleavage by enkephalinase (in words) [1]	cleavage by enkephalinase (in words) [2]	cleavage by enkephalinase (in words) ([2]; listed as Amiloride C(5)-Gly-Gly-Gly-Phe-Leu)
N=C(N)NC(=O)c1nc(Cl)c(NCC(=O)O)nc1N [AmC(5)Gly, amilorideC(5)-glycine-OH]	unaffected		
AmC(5)-G-G-G-F-L (GGGFL; amiloride C(5) conjugate; printed: Gly-Gly-Gly-Phe-Leu)		is cleaved by enkephalinase	generates AmC(5)-Gly
AmC(5)-G-G-F-L		not cleaved by enkephalinase	
CC(C)C[C@@H](NC(=O)[C@H](Cc1ccccc1)NC(=O)CNC(=O)[C@@H](C)NC(=O)CNc1nc(N)c(C(=O)NC(=N)N)nc1Cl)C(=O)O [Compound 3b, C5am-Gly-D-Ala-Gly-Phe-D-Leu-OH] (H-[X1][dA]GF[dL]-OH)	not cleaved		
CC(C)C[C@H](NC(=O)[C@H](Cc1ccccc1)NC(=O)CNC(=O)CNC(=O)CNC(=O)CNc1nc(N)c(C(=O)NC(=N)N)nc1Cl)C(=O)O [Compound 3c, C5am-Gly-Gly-Gly-Gly-Phe-Leu-OH] (H-[X1]GGGFL-OH)	selectively cleaved		
